Results deposited as PubChem BioAssay AID1259308 (NCATS, 2017).
Shown is an unselected part of about 59,000 reagents tested. In the full data, about 1,510 (2.6%) got an active call. 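Calls use total luciferase alone and ignore viability, so some active siRNAs may act by altering cell number.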 A number with no mark means an inactive call. Reagents against one gene are numbered here.

- Aim: 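Knock-downs that increase output of a recombinant reporter protein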 (primary screen)
- Cells: human HEK293 embryonic kidney cells stably expressing firefly luciferase (HEK-CMV-Luc2-Hygro)
- Reagents: single siRNA against human genes, 0.8 pmol siRNA per well
- Time to read-out: 72 h
- Detection: 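Reporter luminescence and viable-cell signal on separate replicate plates, given as percent of non-targeting control and median/MAD z-scores, plus per-cell luciferase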
- Reading the numbers: total luciferase, z-score and total luciferase, % of control: higher = more reporter protein produced; luciferase per cell, z-score: higher = more reporter output per viable cell; viable cells, % of control: higher = more viable cells
- Active means: 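An siRNA counts as active if its total luciferase robust z-score exceeds 3; genes with two or more such siRNAs out of three were retested with fresh siRNAs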
- Calls: active = raised luciferase; inactive = no rise

target	reagent no.	total luciferase, z-score	total luciferase, % of control	luciferase per cell, z-score	viable cells, % of control
DCP2	1	1.17	105	0.197	112
DCP2	2	-0.658	68.8	0.103	74.8
DCP2	3	3.36 (active)	149	1.62	108
BCL2	1	-0.629	69.4	-0.513	88.7
BCL2	2	-1.28	56.5	-1.3	88.9
BCL2	3	-0.317	75.6	-1.12	113
KMT5B	1	0.958	101	0.917	88.6
KMT5B	2	-0.596	70	-0.54	90.2
KMT5B	3	-0.227	77.4	-0.915	110
TUBGCP3	1	-0.282	76.3	0.107	82.9
TUBGCP3	2	-0.116	79.6	-0.373	98.1
TUBGCP3	3	0.677	95.4	2.01	62.7
CILP2	1	2.44	130	2.27	80.1
CILP2	2	0.866	99.1	0.604	94.4
CILP2	3	2.79	137	3.98	53.7
ZDHHC7	1	1.53	112	1.4	86.9
ZDHHC7	2	0.049	82.9	-0.573	108
ZDHHC7	3	-1.76	46.9	-1.57	79.3
AIFM1	1	-0.673	68.5	-1.17	104
AIFM1	2	-0.508	71.8	-0.459	90.5
AIFM1	3	-0.499	72	-0.763	98.3
EOGT	1	-0.198	77.9	-0.276	93.7
EOGT	2	-0.102	79.9	0.0679	87.7
EOGT	3	-0.313	75.7	-0.744	103
HECA	1	-0.673	68.5	-0.947	98.2
HECA	2	0.536	92.5	0.197	98.2
HECA	3	0.215	86.2	-0.508	110
FASTKD3	1	0.259	87	0.728	80.3
FASTKD3	2	-0.555	70.8	-0.107	81.4
FASTKD3	3	-0.227	77.4	-0.0673	88
SIX2	1	0.585	93.5	0.179	99.7
SIX2	2	-0.219	77.5	-0.468	98
SIX2	3	0.407	90	0.184	95.8
PISD	1	0.5	91.8	0.699	85.4
PISD	2	2.51	132	2.03	86.2
PISD	3	-0.0484	80.9	-0.803	112
BEST1	1	-2.33	35.5	-1.79	63.6
BEST1	2	0.0245	82.4	-0.306	99.8
BEST1	3	-0.522	71.5	-1.11	107
NPIPA1	1	0.843	98.6	0.208	104
NPIPA1	2	1.39	110	1.07	92.4
NPIPA1	3	1	102	0.541	98.7
ZNF83	1	1.27	107	0.639	101
ZNF83	2	4.11 (active)	164	2.73	89.1
ZNF83	3	-0.145	79	0.924	69.2
ZNF83	4	0.9	99.8	1.44	76.2
ZNF83	5	-0.649	69	-0.855	96.5
ZNF83	6	-0.477	72.4	-0.661	96.3
OGDHL	1	0.26	87.1	0.0711	95.5
OGDHL	2	1.25	107	0.875	94.8
OGDHL	3	-0.651	68.9	-0.592	90
ZNF19	1	-0.905	63.9	-0.0152	71.7
ZNF19	2	-0.292	76.1	0.182	81
ZNF19	3	-1.79	46.3	-1.52	77.2
TES	1	0.371	89.3	0.883	79.1
TES	2	-0.0672	80.5	-0.285	97
TES	3	-0.803	65.9	-0.536	84.8
YY1AP1	1	1.94	121	2.38	71.9
YY1AP1	2	0.294	87.7	0.814	79.1
YY1AP1	3	-0.427	73.4	-0.83	102
WNT5A	1	-1.18	58.5	-1.46	95.9
WNT5A	2	-1.3	56	-0.656	74.3
WNT5A	3	0.0206	82.3	-0.169	96.2
HMGB3	1	2.27	127	2.63	71.1
HMGB3	2	1.35	109	0.5	106
HMGB3	3	-0.457	72.8	-0.194	85.6
IGDCC4	1	-2.17	38.8	-1.46	63.6
IGDCC4	2	-0.686	68.2	-0.788	93.9
IGDCC4	3	-2.76	27	-2.95	65.7
DYSF	1	-0.576	70.4	-0.928	100
DYSF	2	-0.277	76.4	-0.654	101
DYSF	3	0.444	90.7	-0.11	104
DAZAP2	1	0.629	94.4	0.264	98.4
DAZAP2	2	-0.663	68.7	-0.56	89
DAZAP2	3	3.42 (active)	150	2.95	77

Records listed above marked active (3):
target	reagent no.	total luciferase, z-score	total luciferase, % of control	luciferase per cell, z-score	viable cells, % of control
DCP2	3	3.36 (active)	149	1.62	108
ZNF83	2	4.11 (active)	164	2.73	89.1
DAZAP2	3	3.42 (active)	150	2.95	77
